{
  "source": "paper PMC6748671",
  "about": "“Distribution of Small Molecular Weight Drugs into the Porcine Lens: Studies on Imaging Mass Spectrometry, Partition Coefficients, and Implications in Ocular Pharmacokinetics” (Molecular Pharmaceutics, 2019)",
  "key": {"[1]": {"experiment": "Drug distribution in the porcine lens by MALDI-IMS", "details": "4 h, posterior surface (thickness 1 mm), from ratio to d5-atropine signal", "protocol": "After 4 h, the buffer was removed from the vials and the lenses were rinsed with HBSS–HEPES and gently blotted dry. The lenses were weighed, snap-frozen with liquid nitrogen in flat-bottomed plastic tubes, and then stored at −80 °C until sample preparation and analysis with MALDI-IMS. For the experiment, a smaller set of 16 drugs was used.\nThe frozen lenses were mounted onto a chuck using an optimal cutting temperature compound (Sakura Finetek, CA, USA) on the equatorial side. The lenses were sectioned to 10 μm thickness at −20 °C on a Leica CM Cryostat (S3050, Leica Microsystems GmbH, Germany), equipped with a FEATHER Microtome C35 blade (pfm medical, UK), and collected on a cryofilm (3C16UF, SECTION-LAB Co. Ltd. Yokohama, Japan) by modified Kawamoto method.[23] The film was subsequently mounted onto a microscopy glass slide using a double-sided copper tape. The slides were washed twice with 50 mM ammonium formate for 30 s and dried in a vacuum desiccator. The sample slides contained three lens sections from the drug mixture experiment and three blanks. […]\nThe drugs were identified as their [M + H]^+ ions. […] MALDI images for each detected compound were plotted using a 0.01 μ mass window. […]"}, "[2]": {"details": "cited from earlier work"}},
  "data": [
    {"smiles": "CN1[C@@H]2CC[C@H]1C[C@@H](OC(=O)C(CO)c1ccccc1)C2", "note": "(some centres unmarked) [atropine]", "values": [
      {"measurement": "estimated concentration in lens posterior surface", "setting": "[1]", "result": "~3.4", "unit": "µg/g"},
      {"measurement": "concentration in the lens in vivo compared with aqueous humor, iris and ciliary body", "setting": "[2]", "result": "much lower"}
    ]}
  ]
}
